From article PMC11649915
Results are given in words; binding and its absence hold for the method and conditions named. In cells and extracts the contact can be indirect.

By UniProt entry, the sequences of proteins in these tests, tags left out. Where a name states a change or a piece, a line headed by the entry shows the natural chain unless it says otherwise.
UniProt Q9HC16, whole entry: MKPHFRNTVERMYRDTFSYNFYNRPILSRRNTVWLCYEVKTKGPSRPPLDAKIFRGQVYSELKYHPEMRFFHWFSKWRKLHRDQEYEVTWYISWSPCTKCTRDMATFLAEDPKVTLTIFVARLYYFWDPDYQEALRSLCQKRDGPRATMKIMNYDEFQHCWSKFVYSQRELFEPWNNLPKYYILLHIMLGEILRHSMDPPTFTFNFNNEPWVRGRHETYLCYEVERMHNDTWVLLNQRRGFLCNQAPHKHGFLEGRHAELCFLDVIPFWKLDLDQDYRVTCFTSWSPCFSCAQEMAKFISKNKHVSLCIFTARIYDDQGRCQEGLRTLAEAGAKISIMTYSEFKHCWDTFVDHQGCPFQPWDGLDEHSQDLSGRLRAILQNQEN

Legend:
[1] = target: GFP-tagged SARS-CoV-2 envelope protein (SARS-CoV-2) (UniProt P0DTC4); experiment: co-IP
[2] = target: GFP-tagged SARS-CoV-2 membrane protein (SARS-CoV-2) (UniProt P0DTC5); experiment: co-IP

## APOBEC3G, transfected, tag not shown (Appendix Fig. S2D and S9D) (from UniProt Q9HC16 1-384) (enzyme)
[1]
  binding: no binding
[2]
  binding: no binding
